The results in this text go back to publication PMC4723226.

Assay [1] has as its target T1, Flag-SMYD1 (not stated (human or mouse cDNA cloned)) (UniProt Q8NB12).
T1 sequence: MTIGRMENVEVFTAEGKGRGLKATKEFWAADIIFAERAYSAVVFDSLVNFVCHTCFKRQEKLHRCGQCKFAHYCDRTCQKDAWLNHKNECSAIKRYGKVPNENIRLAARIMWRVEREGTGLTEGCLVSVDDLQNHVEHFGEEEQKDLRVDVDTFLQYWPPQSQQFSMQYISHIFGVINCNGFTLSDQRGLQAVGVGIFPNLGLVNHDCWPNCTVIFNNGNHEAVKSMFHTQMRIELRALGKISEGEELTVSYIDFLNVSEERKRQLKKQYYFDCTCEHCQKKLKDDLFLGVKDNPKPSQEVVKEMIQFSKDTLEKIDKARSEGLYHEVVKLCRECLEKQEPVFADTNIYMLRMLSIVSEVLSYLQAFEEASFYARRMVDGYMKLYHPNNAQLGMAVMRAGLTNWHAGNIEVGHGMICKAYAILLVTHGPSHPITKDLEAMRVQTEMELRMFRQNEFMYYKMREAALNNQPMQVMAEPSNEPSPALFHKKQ
The assay can be described thus: co-IP; 293T cells transfected with Flag-SMYD1 and HA-SRF constructs (whole or deletion mutants); lysates immunoprecipitated with anti-Flag (Fig 4A also anti-HA) antibody; western blot with anti-HA or anti-Flag. (A western blot detects proteins with antibodies after separation by electrophoresis.)

For assay [2], the target named is Flag-SMYD1 N-terminus domain (deletion mutant) (not stated (human or mouse cDNA cloned)). The description is as above.

No constants are given. Whether binding was seen depends on the method and setting. Binding seen in cells or lysates may run through a third protein. Binding can be weak; no strength is given. Sequences can lack the tags named with a protein.

As to “HA-SRF-N (SRF N-terminus domain) (domain or fragment)”, in assay [1], the binding entry was “binds”.

B1: HA-SRF (protein, UniProt P11831 1-508)
chain: MLPTQAGAAAALGRGSALGGSLNRTPTGRPGGGGGTRGANGGRVPGNGAGLGPGRLEREAAAAAATTPAPTAGALYSGSEGDSESGEEEELGAERRGLKRSLSEMEIGMVVGGPEASAAATGGYGPVSGAVSGAKPGKKTRGRVKIKMEFIDNKLRRYTTFSKRKTGIMKKAYELSTLTGTQVLLLVASETGHVYTFATRKLQPMITSETGKALIQTCLNSPDSPPRSDPTTDQRMSATGFEETDLTYQVSESDSSGETKDTLKPAFTVTNLPGTTSTIQTAPSTSTTMQVSSGPSFPITNYLAPVSASVSPSAVSSANGTVLKSTGSGPVSSGGLMQLPTSFTLMPGGAVAQQVPVQAIQVHQAPQQASPSRDSSTDLTQTSSSGTVTLPATIMTSSVPTTVGGHMMYPSPHAVMYAPTSGLGDGSLTVLNAFSQAPSTMQVSHSQVQEPGGVPQVFLTASSGTVQIPVSAVQLHQMAVIGQQAGSSSNLTELQVVNLDTAHSTKSE
Regarding B1, in assay [2], the binding result is “binds”.
